Literature values as cited in US20240325353A1, “COMPOUND FOR TREATMENT OF COGNITIVE DISORDERS” (Syndesi Therapeutics SA, priority 2021, published 2024).
For at least one compound, name, drawing or mass did not settle the structure.

System: Default Mode Network connectivity
Details: patients with schizophrenia; certain regions; cited from earlier work

Cc1cc2c(s1)Nc1ccccc1N=C2N1CCN(C)CC1 [olanzapine]
DMN connectivity: increase DMN connectivity in certain regions
